Experimental data: US20170267679A1, “[…] FUSED PYRIMIDINE COMPOUNDS AS INHIBITORS OF p97 COMPLEX” (Cleave Biosciences, Inc., priority 2016, published 2017)

Tested on: Caco-2 cell monolayer
Conditions: pH 7.4, range over 12 inter-day experiments

Peff in pH 7.4 Caco-2, A B, Range (A to B): 0.69-1.80 x E−6 cm/sec | Peff in pH 7.4 Caco-2, B A, Range (B to A): 1.69-2.68 x E−6 cm/sec
SMILES: CC(C)NCC(O)COc1ccc(CC(N)=O)cc1 (centres unmarked) [Atenolol]
